Reference: the supplement of paper PMC10849652
The other results are listed elsewhere or left out.

Protein sequences, listed by entry. Tags and fused reporters are not part of them. Lines headed by an entry give the natural chain unless they say otherwise; changes in a name come on top.
UniProt P17098: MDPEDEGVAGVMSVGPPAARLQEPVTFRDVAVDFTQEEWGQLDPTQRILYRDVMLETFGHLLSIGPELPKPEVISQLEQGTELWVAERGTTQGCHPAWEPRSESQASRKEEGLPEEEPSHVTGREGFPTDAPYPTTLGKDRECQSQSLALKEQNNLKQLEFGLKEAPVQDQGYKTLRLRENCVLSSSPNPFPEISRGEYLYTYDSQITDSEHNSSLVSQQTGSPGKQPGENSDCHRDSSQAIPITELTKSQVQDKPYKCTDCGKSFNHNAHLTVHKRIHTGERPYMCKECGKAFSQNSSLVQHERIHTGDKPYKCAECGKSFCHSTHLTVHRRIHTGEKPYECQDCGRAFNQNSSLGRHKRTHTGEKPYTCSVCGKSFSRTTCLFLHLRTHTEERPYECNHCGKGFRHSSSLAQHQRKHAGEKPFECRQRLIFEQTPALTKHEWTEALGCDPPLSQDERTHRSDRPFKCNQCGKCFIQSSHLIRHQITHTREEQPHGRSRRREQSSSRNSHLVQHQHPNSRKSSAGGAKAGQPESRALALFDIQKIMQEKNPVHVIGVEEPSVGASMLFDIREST
UniProt A7E2V4, whole entry, looked up: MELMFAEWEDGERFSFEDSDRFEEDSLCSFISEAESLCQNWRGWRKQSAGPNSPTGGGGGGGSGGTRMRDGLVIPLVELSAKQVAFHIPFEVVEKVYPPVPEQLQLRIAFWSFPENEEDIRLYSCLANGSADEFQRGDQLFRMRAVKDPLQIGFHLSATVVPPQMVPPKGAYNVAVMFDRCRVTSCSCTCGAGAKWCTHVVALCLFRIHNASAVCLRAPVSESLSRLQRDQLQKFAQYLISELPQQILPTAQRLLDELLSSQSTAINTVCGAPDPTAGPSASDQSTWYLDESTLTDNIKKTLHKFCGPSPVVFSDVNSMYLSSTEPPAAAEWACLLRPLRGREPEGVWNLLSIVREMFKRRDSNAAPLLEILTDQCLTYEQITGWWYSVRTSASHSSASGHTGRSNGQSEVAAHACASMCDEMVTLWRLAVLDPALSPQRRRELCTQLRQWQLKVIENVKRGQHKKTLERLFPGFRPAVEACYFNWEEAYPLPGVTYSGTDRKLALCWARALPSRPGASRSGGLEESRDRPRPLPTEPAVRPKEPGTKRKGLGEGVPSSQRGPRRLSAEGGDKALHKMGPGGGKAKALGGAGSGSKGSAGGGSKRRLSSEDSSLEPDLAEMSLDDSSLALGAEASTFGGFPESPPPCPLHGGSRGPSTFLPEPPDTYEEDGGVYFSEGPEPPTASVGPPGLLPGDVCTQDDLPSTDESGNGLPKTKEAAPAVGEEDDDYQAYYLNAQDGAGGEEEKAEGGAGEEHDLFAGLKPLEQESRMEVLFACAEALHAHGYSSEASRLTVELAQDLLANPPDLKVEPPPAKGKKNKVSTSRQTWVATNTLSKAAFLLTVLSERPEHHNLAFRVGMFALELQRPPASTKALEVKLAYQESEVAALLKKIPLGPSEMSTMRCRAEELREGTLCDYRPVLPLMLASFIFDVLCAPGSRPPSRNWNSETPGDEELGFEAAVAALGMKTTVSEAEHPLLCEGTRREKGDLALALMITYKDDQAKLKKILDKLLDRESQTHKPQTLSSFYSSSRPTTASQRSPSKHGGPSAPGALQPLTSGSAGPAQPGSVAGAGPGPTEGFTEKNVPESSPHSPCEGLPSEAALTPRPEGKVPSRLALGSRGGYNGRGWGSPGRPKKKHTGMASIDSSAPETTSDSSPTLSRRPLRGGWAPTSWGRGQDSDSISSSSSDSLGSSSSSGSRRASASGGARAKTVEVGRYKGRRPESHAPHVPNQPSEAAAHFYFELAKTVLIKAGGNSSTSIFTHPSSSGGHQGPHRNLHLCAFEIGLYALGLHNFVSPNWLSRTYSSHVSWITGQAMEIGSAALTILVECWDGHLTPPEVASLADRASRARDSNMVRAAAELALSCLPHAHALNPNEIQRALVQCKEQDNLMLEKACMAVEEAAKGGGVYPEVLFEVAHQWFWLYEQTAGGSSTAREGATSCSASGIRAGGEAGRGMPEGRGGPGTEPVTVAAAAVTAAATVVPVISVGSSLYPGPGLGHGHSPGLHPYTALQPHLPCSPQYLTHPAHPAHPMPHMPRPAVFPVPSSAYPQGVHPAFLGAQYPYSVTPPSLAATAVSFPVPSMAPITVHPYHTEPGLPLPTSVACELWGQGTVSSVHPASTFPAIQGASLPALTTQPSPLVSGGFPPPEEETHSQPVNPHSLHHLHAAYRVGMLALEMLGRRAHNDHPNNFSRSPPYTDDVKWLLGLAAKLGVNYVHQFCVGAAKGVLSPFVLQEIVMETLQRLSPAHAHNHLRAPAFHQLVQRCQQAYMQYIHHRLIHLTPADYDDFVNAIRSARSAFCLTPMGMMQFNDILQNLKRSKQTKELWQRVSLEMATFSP
UniProt Q96IR2: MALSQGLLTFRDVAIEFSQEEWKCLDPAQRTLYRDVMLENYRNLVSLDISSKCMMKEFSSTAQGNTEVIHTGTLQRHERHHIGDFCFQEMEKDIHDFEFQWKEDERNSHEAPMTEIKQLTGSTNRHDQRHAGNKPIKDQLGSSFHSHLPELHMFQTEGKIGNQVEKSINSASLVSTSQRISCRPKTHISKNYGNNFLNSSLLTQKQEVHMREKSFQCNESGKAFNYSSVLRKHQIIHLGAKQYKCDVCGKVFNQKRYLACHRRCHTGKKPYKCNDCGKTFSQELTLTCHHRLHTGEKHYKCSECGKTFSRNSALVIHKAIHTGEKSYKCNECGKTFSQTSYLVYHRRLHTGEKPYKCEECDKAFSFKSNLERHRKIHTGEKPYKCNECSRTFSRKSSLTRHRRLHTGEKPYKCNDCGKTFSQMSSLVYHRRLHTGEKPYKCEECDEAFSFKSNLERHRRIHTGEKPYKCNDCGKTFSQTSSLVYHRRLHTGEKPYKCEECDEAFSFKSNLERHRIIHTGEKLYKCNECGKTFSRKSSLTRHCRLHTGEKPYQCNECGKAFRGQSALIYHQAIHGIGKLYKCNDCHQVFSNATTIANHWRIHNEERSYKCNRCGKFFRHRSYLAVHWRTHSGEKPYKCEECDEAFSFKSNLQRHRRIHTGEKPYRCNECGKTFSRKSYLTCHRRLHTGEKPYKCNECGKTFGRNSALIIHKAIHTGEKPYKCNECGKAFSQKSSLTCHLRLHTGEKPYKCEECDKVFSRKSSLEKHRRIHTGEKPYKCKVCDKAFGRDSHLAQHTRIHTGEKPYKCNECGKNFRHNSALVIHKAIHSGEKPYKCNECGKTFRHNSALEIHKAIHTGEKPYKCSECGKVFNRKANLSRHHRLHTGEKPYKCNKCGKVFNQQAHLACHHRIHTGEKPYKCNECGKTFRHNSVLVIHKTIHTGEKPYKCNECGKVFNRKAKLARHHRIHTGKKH
UniProt Q9NWK9: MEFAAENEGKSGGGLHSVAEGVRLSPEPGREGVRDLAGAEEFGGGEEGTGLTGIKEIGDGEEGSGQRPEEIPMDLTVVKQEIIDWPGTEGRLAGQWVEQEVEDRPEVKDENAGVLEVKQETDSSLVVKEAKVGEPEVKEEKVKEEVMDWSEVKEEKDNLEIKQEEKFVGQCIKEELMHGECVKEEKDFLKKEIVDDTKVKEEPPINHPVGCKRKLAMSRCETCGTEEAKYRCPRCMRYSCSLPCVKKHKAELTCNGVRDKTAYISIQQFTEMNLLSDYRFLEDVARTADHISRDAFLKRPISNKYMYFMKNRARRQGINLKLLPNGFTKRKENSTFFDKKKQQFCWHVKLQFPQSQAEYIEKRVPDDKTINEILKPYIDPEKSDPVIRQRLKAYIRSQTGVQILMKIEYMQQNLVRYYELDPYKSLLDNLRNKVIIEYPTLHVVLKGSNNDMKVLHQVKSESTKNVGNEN
UniProt Q5VUA4: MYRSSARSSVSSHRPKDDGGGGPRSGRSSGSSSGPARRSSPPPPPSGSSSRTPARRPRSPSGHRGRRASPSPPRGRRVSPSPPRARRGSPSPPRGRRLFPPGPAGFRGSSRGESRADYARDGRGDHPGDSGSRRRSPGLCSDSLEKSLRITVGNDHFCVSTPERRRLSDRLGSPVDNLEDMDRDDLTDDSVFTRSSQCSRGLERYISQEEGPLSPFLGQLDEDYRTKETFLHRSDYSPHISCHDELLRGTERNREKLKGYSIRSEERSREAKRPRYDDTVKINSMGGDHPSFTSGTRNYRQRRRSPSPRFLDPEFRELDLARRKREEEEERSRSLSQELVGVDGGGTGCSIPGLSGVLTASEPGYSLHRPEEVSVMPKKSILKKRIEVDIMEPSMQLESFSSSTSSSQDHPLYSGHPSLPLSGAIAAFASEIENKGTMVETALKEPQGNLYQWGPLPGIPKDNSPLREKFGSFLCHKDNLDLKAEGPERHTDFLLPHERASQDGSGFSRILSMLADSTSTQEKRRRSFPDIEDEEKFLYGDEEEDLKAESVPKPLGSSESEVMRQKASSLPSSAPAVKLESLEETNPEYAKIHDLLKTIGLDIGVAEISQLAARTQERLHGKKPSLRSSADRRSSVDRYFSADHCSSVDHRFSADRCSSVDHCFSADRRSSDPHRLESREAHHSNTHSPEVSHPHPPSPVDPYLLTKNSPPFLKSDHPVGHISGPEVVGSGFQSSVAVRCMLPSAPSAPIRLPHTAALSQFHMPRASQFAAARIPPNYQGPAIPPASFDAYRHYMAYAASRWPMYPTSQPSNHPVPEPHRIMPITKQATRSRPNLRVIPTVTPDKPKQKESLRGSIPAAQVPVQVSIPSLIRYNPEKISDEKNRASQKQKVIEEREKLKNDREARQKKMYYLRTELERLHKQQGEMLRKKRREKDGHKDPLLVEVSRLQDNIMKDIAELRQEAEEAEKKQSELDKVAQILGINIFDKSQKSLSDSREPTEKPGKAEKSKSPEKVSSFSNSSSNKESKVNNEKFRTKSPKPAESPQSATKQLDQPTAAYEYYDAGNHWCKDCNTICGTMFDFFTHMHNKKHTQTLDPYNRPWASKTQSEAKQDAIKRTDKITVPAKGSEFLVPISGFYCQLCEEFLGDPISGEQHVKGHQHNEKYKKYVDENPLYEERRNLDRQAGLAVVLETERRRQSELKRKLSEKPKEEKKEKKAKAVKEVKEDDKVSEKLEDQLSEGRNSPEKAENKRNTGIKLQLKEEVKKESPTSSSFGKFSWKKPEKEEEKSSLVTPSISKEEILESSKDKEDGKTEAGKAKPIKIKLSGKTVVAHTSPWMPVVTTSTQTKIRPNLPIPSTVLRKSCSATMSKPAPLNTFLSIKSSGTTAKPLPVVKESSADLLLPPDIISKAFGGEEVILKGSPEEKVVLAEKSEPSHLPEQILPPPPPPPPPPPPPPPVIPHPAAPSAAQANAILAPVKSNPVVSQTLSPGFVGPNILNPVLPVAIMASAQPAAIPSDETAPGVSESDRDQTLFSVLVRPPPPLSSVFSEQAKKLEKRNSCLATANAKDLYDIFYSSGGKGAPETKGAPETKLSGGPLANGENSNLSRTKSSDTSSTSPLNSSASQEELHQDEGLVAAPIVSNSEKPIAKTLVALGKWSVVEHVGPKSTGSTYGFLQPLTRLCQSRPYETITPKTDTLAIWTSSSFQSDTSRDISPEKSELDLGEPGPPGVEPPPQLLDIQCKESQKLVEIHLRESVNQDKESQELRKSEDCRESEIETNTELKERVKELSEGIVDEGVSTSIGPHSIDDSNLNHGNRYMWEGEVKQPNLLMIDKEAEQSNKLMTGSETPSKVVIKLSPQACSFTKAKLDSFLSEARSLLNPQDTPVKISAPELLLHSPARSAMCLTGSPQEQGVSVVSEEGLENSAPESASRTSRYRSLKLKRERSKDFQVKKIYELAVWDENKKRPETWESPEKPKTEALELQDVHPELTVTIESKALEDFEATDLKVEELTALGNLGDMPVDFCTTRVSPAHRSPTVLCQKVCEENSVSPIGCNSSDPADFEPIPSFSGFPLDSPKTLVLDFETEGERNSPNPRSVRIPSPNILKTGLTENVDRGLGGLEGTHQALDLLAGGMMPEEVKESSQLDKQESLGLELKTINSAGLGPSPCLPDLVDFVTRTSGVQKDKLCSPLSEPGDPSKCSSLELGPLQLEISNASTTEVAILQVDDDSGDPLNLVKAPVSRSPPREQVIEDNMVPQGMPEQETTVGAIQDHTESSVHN
UniProt Q9Y5V0: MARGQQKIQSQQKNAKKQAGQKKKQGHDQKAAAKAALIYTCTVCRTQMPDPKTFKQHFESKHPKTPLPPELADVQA
UniProt Q6DD87: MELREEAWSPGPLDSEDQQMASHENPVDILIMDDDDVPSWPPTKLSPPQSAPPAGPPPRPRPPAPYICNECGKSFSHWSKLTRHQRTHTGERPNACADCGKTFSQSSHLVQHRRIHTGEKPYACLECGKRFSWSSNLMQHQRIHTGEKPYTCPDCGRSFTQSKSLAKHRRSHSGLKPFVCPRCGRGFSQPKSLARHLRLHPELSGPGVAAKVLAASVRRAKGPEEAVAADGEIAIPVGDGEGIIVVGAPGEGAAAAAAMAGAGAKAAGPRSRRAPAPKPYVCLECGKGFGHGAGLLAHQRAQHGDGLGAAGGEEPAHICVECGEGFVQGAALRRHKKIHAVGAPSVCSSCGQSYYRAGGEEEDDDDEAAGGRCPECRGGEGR

compound: Cn1cc(-c2ccc3c(c2)CCN3C(=O)Cc2cccc(C(F)(F)F)c2)c2c(N)ncnc21; assay: log2 fold change, soluble protein after heating vs DMSO (PISA); higher = thermal stabilisation; K562 lysate, 10 uM; active = over 0.2 and 3.5 SD of the protein, either way, in both replicates (recomputed)
Method in brief: (§1)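 Values give the log-two fold change in thermal stability against solvent controls, from duplicates. Crude K562 extract at 1 mg/mL protein, made by dounce homogenisation in PBS pH 7.4 with 1 mM MgCl2, was treated with 10 μM compound for 30 min. After 3 min heating across 48°C-58°C, aliquots were pooled, adjusted to 0.5% NP-40 at 4°C and centrifuged at 21,000xg for 90 min. The supernatant was measured by TMTpro 16plex LC-MS/MS with channel sums equalised.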

| Target | log2 fold change |
| --- | --- |
| ZNF207 isoform 4 (UniProt O43670) | inactive: 0.003 |
| ZNF8 (UniProt P17098) | inactive: 0.088 |
| ZSWIM8 isoform 4 (UniProt A7E2V4) | inactive: 0.042 |
| ZNF845 (UniProt Q96IR2) | inactive: 0.021 |
| ZNF644 (UniProt Q9H582) | inactive: -0.061 |
| ZNF618 (UniProt Q5T7W0) | inactive: -0.025 |
| ZHX1 (UniProt Q9UKY1) | inactive: -0.096 |
| ZNHIT6 (UniProt Q9NWK9) | inactive: 0.004 |
| ZMYM4 (UniProt Q5VZL5) | inactive: -0.061 |
| ZMYM2 (UniProt Q9UBW7) | inactive: 0.035 |
| ZMYM3 (UniProt Q14202) | inactive: 0.035 |
| ZNF318 (UniProt Q5VUA4) | inactive: -0.002 |

compound: Cn1cc(CNCC2CCN(c3ncc(C(=O)NO)cn3)CC2)c2ccccc21 [quisinostat]; assay: as above
Method in brief: as §1

| Target | log2 fold change |
| --- | --- |
| ZNF280A (UniProt P59817) | inactive: -0.125 |
| ZZZ3 (UniProt Q8IYH5) | inactive: -0.044 |
| ZNF143 (UniProt P52747) | inactive: 0.051 |
| ZNRD2 (UniProt O60232) | inactive: 0.028 |
| ZNF706 (UniProt Q9Y5V0) | inactive: 0.065 |
| ZMAT2 (UniProt Q96NC0) | inactive: -0.066 |
| ZNRD2 (UniProt G3V1B8) | inactive: -0.191 |
| ZNF148 (UniProt Q9UQR1) | inactive: -0.184 |
| ZWILCH (UniProt Q9H900) | inactive: -0.028 |
| ZNF638 (UniProt Q14966) | inactive: -0.003 |
| ZMYND8 isoform 19 (UniProt Q9ULU4) | inactive: -0.073 |
| ZNF622 (UniProt Q969S3) | inactive: 0.062 |
| ZNF787 (UniProt Q6DD87) | inactive: 0.069 |
| ZNF639 (UniProt Q9UID6) | inactive: -0.013 |
| hCG_1984214 (UniProt I3L0E3) | inactive: -0.006 |
| ZZEF1 (UniProt O43149) | inactive: -0.07 |
| ZKSCAN8 (UniProt Q15776) | inactive: -0.134 |
| ZMIZ1 (UniProt Q9ULJ6) | inactive: -0.044 |

| Target | log2 fold change |
| --- | --- |
| ZMIZ2 (UniProt Q8NF64) | inactive: -0.086 |
| ZNF24 (UniProt P17028) | inactive: -0.009 |
| ZNF672 (UniProt Q499Z4) | inactive: 0.005 |
| ZNF609 (UniProt O15014) | inactive: -0.006 |
| ZNF511 (UniProt Q8NB15) | inactive: 0.021 |
| ZNF207 isoform 4 (UniProt O43670) | inactive: -0.091 |
| ZNF8 (UniProt P17098) | inactive: -0.431 |
| ZSWIM8 isoform 4 (UniProt A7E2V4) | inactive: -0.051 |
| ZNF845 (UniProt Q96IR2) | inactive: -0.033 |
| ZNF644 (UniProt Q9H582) | inactive: -0.026 |
| ZNF618 (UniProt Q5T7W0) | inactive: -0.051 |
| ZHX1 (UniProt Q9UKY1) | inactive: -0.035 |
| ZNHIT6 (UniProt Q9NWK9) | inactive: -0.04 |
| ZMYM4 (UniProt Q5VZL5) | inactive: -0.028 |
| ZMYM2 (UniProt Q9UBW7) | inactive: -0.082 |
| ZMYM3 (UniProt Q14202) | inactive: -0.064 |
| ZNF318 (UniProt Q5VUA4) | inactive: 0.088 |

compound: Cn1cncc1[C@@](N)(c1ccc(Cl)cc1)c1ccc2c(c1)c(-c1cccc(Cl)c1)cc(=O)n2C [tipifarnib]; assay: as above
Method in brief: as §1

| Target | log2 fold change |
| --- | --- |
| ZNF280A (UniProt P59817) | inactive: -0.173 |
| ZZZ3 (UniProt Q8IYH5) | inactive: 0.106 |
| ZNF143 (UniProt P52747) | inactive: -0.044 |
| ZNRD2 (UniProt O60232) | inactive: -0.025 |
| ZNF706 (UniProt Q9Y5V0) | inactive: 0.013 |
| ZMAT2 (UniProt Q96NC0) | inactive: -0.013 |
| ZNRD2 (UniProt G3V1B8) | inactive: -0.076 |
| ZNF148 (UniProt Q9UQR1) | inactive: 0.124 |
| ZWILCH (UniProt Q9H900) | inactive: -0.045 |
| ZNF638 (UniProt Q14966) | inactive: -0.028 |
| ZMYND8 isoform 19 (UniProt Q9ULU4) | inactive: -0.025 |
| ZNF622 (UniProt Q969S3) | inactive: 0.019 |
| ZNF787 (UniProt Q6DD87) | inactive: 0.033 |
| ZNF639 (UniProt Q9UID6) | inactive: 0.003 |
| hCG_1984214 (UniProt I3L0E3) | inactive: 0.013 |
| ZZEF1 (UniProt O43149) | inactive: 0.007 |
| ZKSCAN8 (UniProt Q15776) | inactive: 0.101 |
| ZMIZ1 (UniProt Q9ULJ6) | inactive: -0.004 |

| Target | log2 fold change |
| --- | --- |
| ZMIZ2 (UniProt Q8NF64) | inactive: -0.043 |
| ZNF24 (UniProt P17028) | inactive: -0.011 |
| ZNF672 (UniProt Q499Z4) | inactive: -0.036 |
| ZNF609 (UniProt O15014) | inactive: 0.01 |
| ZNF511 (UniProt Q8NB15) | inactive: -0.001 |
| ZNF207 isoform 4 (UniProt O43670) | inactive: -0.008 |
| ZNF8 (UniProt P17098) | inactive: -0.101 |
| ZSWIM8 isoform 4 (UniProt A7E2V4) | inactive: -0.065 |
| ZNF845 (UniProt Q96IR2) | inactive: -0.006 |
| ZNF644 (UniProt Q9H582) | inactive: -0.012 |
| ZNF618 (UniProt Q5T7W0) | inactive: 0.048 |
| ZHX1 (UniProt Q9UKY1) | inactive: 0.007 |
| ZNHIT6 (UniProt Q9NWK9) | inactive: 0.014 |
| ZMYM4 (UniProt Q5VZL5) | inactive: -0.051 |
| ZMYM2 (UniProt Q9UBW7) | inactive: 0.08 |
| ZMYM3 (UniProt Q14202) | inactive: 0.001 |
| ZNF318 (UniProt Q5VUA4) | inactive: -0.065 |
